Only a part is listed here, and it is no random draw.
compound: COC(=O)C#Cc1ccccc1 [methyl 3-phenylpropiolate]; assay: log2 ratio of iodoacetamide-alkyne labeling of the cysteine site, DMSO over compound (competition); higher = stronger covalent engagement of the cysteine by the compound, active = 1 or more; conditions: 500 µM; treatment time 1 h; system: HEK293T cell lysate
In short: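 After 1 h at ambient temperature with vehicle or electrophile (500 µM), HEK293T lysate (2 mg/mL) was labelled for 1 h with iodoacetamide alkyne and clicked to sCIP-TMT reagents. Pooled samples were trypsin-digested overnight at 37 °C, streptavidin-enriched, acid-eluted and analysed by Orbitrap Eclipse LC-MS/MS with FAIMS, then quantified in FragPipe over three replicates with duplicate channels. A cysteine's log2 competition ratio is its mean control-channel over mean compound-channel reporter intensity. Cysteines quantified in only one replicate were not included.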

Protein sequences, listed by entry. Tags and fused reporters are not part of them. Lines headed by an entry give the natural chain unless they say otherwise; changes in a name come on top.
UniProt Q14202: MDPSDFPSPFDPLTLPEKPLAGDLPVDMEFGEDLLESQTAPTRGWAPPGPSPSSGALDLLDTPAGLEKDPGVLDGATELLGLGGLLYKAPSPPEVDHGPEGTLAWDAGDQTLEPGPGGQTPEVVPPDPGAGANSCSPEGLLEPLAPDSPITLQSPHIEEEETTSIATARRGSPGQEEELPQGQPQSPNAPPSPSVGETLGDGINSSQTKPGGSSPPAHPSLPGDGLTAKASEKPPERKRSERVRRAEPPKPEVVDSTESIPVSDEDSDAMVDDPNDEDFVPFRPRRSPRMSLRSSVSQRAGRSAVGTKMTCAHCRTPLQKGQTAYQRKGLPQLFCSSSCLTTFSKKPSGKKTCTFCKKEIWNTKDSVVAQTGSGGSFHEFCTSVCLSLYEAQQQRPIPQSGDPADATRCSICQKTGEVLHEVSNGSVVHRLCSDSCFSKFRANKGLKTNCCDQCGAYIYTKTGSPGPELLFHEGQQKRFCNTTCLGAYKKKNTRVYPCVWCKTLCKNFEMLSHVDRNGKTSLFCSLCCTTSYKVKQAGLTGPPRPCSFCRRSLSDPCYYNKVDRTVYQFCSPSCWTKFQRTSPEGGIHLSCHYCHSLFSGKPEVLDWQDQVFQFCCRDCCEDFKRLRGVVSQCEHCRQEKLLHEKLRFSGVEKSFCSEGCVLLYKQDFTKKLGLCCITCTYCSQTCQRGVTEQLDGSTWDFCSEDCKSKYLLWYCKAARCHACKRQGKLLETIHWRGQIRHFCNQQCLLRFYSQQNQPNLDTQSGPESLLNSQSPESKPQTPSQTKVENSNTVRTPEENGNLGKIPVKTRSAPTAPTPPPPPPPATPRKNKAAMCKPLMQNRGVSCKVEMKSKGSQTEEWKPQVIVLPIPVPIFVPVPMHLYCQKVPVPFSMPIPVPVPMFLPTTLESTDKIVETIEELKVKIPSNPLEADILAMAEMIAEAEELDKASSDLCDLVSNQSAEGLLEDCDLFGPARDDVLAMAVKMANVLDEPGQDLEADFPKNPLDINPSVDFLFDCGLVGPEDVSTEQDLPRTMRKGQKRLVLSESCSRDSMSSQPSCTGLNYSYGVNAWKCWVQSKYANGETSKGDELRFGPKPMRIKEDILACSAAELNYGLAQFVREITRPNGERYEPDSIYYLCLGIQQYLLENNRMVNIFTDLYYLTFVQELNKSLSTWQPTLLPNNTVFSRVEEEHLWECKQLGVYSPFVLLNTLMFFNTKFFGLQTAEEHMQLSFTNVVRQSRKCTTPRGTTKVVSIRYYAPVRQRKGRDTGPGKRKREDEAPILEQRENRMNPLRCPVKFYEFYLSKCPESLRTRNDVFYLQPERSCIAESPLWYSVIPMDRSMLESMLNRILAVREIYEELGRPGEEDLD
UniProt Q13685: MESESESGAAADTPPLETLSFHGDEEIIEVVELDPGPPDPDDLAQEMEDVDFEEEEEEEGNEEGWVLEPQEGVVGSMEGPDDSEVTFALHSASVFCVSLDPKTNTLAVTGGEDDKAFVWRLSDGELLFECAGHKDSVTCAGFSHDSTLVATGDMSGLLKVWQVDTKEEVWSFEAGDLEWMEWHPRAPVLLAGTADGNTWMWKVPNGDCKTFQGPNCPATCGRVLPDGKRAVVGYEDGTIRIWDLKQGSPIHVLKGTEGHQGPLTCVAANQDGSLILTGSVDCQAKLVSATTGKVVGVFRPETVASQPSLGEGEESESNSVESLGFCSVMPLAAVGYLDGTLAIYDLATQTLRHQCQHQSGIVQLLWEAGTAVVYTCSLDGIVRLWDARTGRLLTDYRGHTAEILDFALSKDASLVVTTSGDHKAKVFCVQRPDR
UniProt Q14807: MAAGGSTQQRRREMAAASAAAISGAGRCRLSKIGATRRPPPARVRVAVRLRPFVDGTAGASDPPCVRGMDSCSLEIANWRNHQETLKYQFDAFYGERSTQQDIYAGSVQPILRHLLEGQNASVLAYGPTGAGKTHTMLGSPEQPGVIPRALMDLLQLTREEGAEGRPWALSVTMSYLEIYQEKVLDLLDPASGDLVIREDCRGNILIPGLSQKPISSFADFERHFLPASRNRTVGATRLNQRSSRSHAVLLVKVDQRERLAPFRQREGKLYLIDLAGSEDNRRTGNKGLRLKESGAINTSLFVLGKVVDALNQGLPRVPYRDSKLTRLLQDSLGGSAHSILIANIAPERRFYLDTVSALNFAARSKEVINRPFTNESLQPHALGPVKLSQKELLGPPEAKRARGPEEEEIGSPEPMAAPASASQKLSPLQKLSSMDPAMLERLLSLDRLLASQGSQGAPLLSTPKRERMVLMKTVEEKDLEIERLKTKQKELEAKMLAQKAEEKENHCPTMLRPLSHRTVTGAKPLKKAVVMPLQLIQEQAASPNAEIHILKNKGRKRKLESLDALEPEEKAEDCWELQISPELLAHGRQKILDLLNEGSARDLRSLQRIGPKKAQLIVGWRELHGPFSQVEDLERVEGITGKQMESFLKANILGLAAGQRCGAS
UniProt Q14244: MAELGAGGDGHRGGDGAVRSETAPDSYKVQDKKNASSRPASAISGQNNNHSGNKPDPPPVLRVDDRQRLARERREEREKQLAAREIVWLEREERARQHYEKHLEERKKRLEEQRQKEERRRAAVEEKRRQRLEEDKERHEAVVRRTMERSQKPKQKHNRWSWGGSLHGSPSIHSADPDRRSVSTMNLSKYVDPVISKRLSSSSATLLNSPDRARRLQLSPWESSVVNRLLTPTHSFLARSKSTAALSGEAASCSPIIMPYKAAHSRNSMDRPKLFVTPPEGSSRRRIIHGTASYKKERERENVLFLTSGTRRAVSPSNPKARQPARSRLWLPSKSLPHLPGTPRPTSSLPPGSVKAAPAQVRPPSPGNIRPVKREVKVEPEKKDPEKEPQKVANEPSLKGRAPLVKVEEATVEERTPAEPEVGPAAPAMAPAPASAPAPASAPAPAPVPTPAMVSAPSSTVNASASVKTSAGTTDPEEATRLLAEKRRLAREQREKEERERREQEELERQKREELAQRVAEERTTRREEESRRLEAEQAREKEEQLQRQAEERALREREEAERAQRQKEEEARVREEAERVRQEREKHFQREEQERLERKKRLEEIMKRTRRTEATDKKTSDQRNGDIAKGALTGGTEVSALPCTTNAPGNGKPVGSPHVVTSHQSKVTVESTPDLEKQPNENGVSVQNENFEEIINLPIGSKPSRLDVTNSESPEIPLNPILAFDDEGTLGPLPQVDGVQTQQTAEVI
UniProt Q14671: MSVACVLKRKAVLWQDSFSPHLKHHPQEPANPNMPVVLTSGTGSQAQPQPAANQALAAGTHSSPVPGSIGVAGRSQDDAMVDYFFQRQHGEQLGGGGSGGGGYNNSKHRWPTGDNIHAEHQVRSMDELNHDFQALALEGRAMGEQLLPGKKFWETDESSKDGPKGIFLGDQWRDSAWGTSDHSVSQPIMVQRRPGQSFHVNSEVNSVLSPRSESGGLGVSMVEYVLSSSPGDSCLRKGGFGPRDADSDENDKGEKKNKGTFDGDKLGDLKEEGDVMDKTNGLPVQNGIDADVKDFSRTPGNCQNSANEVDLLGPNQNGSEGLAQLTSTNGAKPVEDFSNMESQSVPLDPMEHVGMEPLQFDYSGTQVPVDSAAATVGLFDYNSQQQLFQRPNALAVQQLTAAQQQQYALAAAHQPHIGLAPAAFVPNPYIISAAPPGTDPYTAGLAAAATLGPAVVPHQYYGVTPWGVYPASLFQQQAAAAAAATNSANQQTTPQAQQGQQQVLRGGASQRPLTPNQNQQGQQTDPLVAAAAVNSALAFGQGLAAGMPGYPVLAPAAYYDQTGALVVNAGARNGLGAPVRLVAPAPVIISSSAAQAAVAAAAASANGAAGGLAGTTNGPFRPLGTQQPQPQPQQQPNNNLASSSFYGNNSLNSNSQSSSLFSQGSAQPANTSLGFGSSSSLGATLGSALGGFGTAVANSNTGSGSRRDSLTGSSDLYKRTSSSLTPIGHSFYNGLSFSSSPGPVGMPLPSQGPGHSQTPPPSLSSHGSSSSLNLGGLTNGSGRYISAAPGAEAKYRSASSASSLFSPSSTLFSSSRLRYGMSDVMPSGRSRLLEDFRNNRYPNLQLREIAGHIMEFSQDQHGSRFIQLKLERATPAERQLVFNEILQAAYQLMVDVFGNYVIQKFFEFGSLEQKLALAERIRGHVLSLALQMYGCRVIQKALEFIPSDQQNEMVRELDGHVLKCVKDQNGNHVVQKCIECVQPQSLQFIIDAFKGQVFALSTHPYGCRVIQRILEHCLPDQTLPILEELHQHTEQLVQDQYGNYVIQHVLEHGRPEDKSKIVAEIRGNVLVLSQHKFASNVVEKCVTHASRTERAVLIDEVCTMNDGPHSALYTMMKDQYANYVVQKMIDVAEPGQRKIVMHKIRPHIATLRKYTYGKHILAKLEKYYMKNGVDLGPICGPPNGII
UniProt Q14012: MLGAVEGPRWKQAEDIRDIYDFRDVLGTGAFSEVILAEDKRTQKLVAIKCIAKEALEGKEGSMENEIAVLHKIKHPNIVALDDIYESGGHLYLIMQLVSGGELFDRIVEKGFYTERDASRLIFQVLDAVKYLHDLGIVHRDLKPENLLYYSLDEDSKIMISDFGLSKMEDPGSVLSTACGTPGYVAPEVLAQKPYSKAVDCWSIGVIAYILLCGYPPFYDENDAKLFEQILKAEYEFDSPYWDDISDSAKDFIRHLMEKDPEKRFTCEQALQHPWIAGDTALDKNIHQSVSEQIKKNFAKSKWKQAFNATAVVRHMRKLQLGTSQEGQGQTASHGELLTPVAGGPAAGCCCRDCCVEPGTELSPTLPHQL
UniProt Q14166: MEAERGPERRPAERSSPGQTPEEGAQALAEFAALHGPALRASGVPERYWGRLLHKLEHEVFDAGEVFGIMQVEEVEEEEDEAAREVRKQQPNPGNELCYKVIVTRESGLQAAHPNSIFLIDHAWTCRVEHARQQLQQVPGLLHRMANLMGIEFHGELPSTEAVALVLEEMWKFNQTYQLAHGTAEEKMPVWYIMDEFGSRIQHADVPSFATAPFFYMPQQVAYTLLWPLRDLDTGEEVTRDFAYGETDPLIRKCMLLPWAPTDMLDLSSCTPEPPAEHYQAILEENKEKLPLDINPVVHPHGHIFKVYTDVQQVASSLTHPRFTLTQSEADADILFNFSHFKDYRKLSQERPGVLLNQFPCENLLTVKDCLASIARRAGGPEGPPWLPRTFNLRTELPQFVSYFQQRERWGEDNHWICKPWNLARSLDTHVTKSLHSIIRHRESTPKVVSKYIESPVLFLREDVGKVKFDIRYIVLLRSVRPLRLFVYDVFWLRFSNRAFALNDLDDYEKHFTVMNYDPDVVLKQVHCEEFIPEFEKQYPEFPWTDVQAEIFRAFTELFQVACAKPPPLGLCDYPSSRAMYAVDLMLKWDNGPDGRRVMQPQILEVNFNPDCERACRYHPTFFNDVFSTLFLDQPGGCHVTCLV
UniProt Q14974, whole entry, looked up: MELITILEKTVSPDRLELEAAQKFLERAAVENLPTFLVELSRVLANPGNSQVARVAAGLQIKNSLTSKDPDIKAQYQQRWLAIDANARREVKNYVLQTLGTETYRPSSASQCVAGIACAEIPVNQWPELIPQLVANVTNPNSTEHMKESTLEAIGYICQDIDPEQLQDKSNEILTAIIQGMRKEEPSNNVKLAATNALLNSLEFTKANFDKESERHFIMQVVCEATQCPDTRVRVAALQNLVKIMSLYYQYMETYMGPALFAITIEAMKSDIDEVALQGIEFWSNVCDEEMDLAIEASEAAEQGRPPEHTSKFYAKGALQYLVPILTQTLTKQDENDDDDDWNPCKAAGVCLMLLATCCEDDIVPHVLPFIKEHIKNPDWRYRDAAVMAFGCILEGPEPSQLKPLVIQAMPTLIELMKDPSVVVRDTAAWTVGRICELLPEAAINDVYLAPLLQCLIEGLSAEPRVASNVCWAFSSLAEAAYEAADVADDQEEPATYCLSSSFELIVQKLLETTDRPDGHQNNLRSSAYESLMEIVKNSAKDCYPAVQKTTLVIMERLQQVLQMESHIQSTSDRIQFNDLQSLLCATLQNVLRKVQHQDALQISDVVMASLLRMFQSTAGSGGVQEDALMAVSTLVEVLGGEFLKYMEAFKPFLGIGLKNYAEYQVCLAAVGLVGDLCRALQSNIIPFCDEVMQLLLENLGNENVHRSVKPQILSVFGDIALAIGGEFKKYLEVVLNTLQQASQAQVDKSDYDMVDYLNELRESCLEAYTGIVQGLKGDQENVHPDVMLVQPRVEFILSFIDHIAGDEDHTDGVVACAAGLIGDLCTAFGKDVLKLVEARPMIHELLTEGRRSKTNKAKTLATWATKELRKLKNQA
UniProt Q13643: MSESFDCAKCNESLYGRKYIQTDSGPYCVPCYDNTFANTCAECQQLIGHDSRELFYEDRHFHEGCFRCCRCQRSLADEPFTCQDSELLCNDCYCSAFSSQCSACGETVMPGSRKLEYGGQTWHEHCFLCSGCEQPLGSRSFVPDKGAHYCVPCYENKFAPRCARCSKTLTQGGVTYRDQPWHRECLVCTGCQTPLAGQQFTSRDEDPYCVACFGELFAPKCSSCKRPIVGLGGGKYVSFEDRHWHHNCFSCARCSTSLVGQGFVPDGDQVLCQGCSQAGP

log2 ratio of iodoacetamide-alkyne labeling, inactive:
SQSTM1 C26 (UniProt Q13501) 0.699
SMC1A C1073 (UniProt Q14683) 0.271
GANAB C423 (UniProt Q14697) 0.019
ITPR3 C1638 (UniProt Q14573) 0.747
ZMYM3 C1326 (UniProt Q14202) 0.196
EIF3A C404 (UniProt Q14152) 0.447
AAMP C428 (UniProt Q13685) -0.0534
GANAB C502 (UniProt Q14697) 0.0736
SCRIB C22 (UniProt Q14160) 0.711
SAFB2 C449 (UniProt Q14151) 0.0863
KIF22 C575 (UniProt Q14807) 0.118
MAP7 C644 (UniProt Q14244) 0.593
PUM1 C1179 (UniProt Q14671) 0.0434
GOLGB1 C1285 (UniProt Q14789) 0.284
CAMK1 C354 (UniProt Q14012) 0.189
TTLL12 C126 (UniProt Q14166) -0.117
MTMR3 C826 (UniProt Q13615) 0.456
TTLL12 C642 (UniProt Q14166) 0.0501
NUMA1 C2009 (UniProt Q14980) 0.381
KPNB1 C455 (UniProt Q14974) 0.582
FHL3 C212 (UniProt Q13643) 0.0725

For convenience, part of the list above:
log2 ratio of iodoacetamide-alkyne labeling, inactive:
SCRIB C22 (UniProt Q14160) 0.711
SAFB2 C449 (UniProt Q14151) 0.0863
KIF22 C575 (UniProt Q14807) 0.118
MAP7 C644 (UniProt Q14244) 0.593
PUM1 C1179 (UniProt Q14671) 0.0434

— the supplement of paper PMC11006884
